Article PMC7819943, “Rice protein-binding microarrays: a tool to detect cis-acting elements near promoter regions in rice”
The other results are listed elsewhere or left out.

Each sequence was assayed against T1, OsSMF1 (Oryza sativa, UniProt Q6ZLB0 1-436) (assay: protein-binding microarray (RPBM); PBS, 2% BSA, 51.3 ng/ul salmon testes DNA, 50 uM zinc acetate, 200 nM TF, 25 C, 1 h; high values mean tight binding). Conditions: protein: recombinant; tags: N-terminal polyhistidine and DsRed monomer fusion (pET32a); chain copies: 2; label: CyDye5-dUTP incorporated in the synthesized complementary strand; 3' TTTTT single-stranded linker to array surface; dsDNA, one strand shown.
T1 sequence: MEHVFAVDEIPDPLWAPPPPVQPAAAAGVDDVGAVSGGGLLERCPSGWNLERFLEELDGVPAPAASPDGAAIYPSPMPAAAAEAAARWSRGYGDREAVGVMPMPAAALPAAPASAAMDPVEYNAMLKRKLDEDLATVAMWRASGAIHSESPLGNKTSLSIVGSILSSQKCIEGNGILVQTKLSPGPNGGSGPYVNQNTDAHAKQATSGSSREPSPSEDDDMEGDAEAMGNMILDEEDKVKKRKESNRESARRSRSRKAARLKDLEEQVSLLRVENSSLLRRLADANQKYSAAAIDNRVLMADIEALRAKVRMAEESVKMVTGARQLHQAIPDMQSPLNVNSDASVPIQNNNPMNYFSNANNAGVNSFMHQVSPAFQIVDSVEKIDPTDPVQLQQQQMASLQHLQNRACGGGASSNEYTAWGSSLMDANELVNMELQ
In short: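 Transcription factors were made in E. coli BL21-CodonPlus as N-terminal fusions to a polyhistidine tag and DsRed, then purified on Ni–NTA. After primer extension with Cy5-dUTP and blocking with 2% BSA, a custom Agilent array was exposed for 1 h at 25 °C to 200 nM protein in PBS, 2% BSA, salmon testes DNA and 50 µM zinc acetate. Washed arrays were scanned on an Axon 4000B, and the binding signal is per-feature fluorescence intensity in arbitrary units.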

Q: For “CTCACATGTCATACACACACTGCGTCTTGGAGTCCGTGCTCGGAGTCACCTAGTGCAG”, which binding signal is on record?
A: 4810 fluorescence intensity (a.u.)

Q: For “AAGCACAAACAATACAGAGATGACTCGCAGGGCGGTTGAGCGGAGTCACCTAGTGCAG”, which binding signal is on record?
A: 3470 fluorescence intensity (a.u.)

Q: With “GCGTGGCCACATCAGCCTCCTCTCTCCCTTCCTCATCTCTCGGAGTCACCTAGTGCAG” as the sequence, how does the binding signal read?
A: 14700 fluorescence intensity (a.u.)

Q: “GATTGGCAGGAGCCATGTTACGTCGGTCCATCCCGTCCCGCGGAGTCACCTAGTGCAG” was tested. Which binding signal did it give?
A: 3760 fluorescence intensity (a.u.)

Q: “GTGCCACCGTGATATTGCCATGTCAGCACACAAAGTGAATCGGAGTCACCTAGTGCAG” was tested. Which binding signal did it give?
A: 13000 fluorescence intensity (a.u.)

Q: With “CACCAGGTGGAGGGTCGACTCCTTCTGGATGTTGTAGTCGCGGAGTCACCTAGTGCAG” as the sequence, how does the binding signal read?
A: 3250 fluorescence intensity (a.u.)

Q: Which binding signal does the source give for “CGTTCTCCCTCCTCGGCGCGACGTGGACGAGATGATGACGCGGAGTCACCTAGTGCAG” here?
A: 4880 fluorescence intensity (a.u.)

Q: For “ACTGAAGTTGTAGAATCCGGTTAGGTCTCACGTATGAGTTCGGAGTCACCTAGTGCAG”, which binding signal is on record?
A: 19600 fluorescence intensity (a.u.)

Q: With “CCTTGTAGCGGCGGCGCCCTTCCACGTGCGCAGAGGCCGCCGGAGTCACCTAGTGCAG” as the sequence, how does the binding signal read?
A: 11100 fluorescence intensity (a.u.)

Q: For “GCTGATGACGTCCCTATCGGTTCTTATCTCAGTTCCTCCCCGGAGTCACCTAGTGCAG”, which binding signal is on record?
A: 9520 fluorescence intensity (a.u.)

Q: Which binding signal does the source give for “AGTAACCGTTGGATAGCCACGTGTGCGGCCACGATCCGGTCGGAGTCACCTAGTGCAG” here?
A: 13900 fluorescence intensity (a.u.)

Q: “GTCTAGTATAAATCAACGCCACACCACTTGCCTAGTCATCCGGAGTCACCTAGTGCAG” was tested. Which binding signal did it give?
A: 9090 fluorescence intensity (a.u.)

Q: Which binding signal does the source give for “TCATCTCATCTCTCCACGTCACCCGACTCCGACTCCGTGGCGGAGTCACCTAGTGCAG” here?
A: 16900 fluorescence intensity (a.u.)

Q: With “AACAGAAACATCCTCGTCAGCCGATCTGTTCACCAGTCTCCGGAGTCACCTAGTGCAG” as the sequence, how does the binding signal read?
A: 6900 fluorescence intensity (a.u.)

Q: With “TGTTTCTTGAATTCTCTTCTCCTAGTCAGATATCGCTGCCCGGAGTCACCTAGTGCAG” as the sequence, how does the binding signal read?
A: 5270 fluorescence intensity (a.u.)

Q: How did the binding signal turn out when “TCCCCACCTAGGTTAAAAGATACGGAAACTGCATGAGAACCGGAGTCACCTAGTGCAG” was run?
A: 5750 fluorescence intensity (a.u.)

Q: Which binding signal does the source give for “CTGGCATGACACGGCCCGACGTGCGACTGACCTCGACCTACGGAGTCACCTAGTGCAG” here?
A: 3150 fluorescence intensity (a.u.)

Q: “ACCTGCCAGAGGAGGATTCATCCCCGCCCCGCGCGCGCGTCGGAGTCACCTAGTGCAG” was tested. Which binding signal did it give?
A: 3220 fluorescence intensity (a.u.)

Q: “ACGCGACTGATGCGAATGGGATGAGTTCCTTTCGATGTTTCGGAGTCACCTAGTGCAG” was tested. Which binding signal did it give?
A: 3460 fluorescence intensity (a.u.)

Q: “AGTGACGCTGTGACTTGTCCATTAGCCTGCCACCTCAGATCGGAGTCACCTAGTGCAG” was tested. Which binding signal did it give?
A: 6880 fluorescence intensity (a.u.)

Q: “ATCAAACGACCGCGCACTTTCATACACTACAGCTAGCACGCGGAGTCACCTAGTGCAG” was tested. Which binding signal did it give?
A: 7000 fluorescence intensity (a.u.)

Q: For “GAAAACCGAACACACATGACTCACCGCTGCACTATCCAGTCGGAGTCACCTAGTGCAG”, which binding signal is on record?
A: 10200 fluorescence intensity (a.u.)

Q: Which binding signal does the source give for “AGGGACCGATGCGATGCGGCCAGTACATATATGGGATTTCCGGAGTCACCTAGTGCAG” here?
A: 3710 fluorescence intensity (a.u.)

Q: For “CTTATAGCAAATAGGCATTTTGGGGAGACAAATATGAATGCGGAGTCACCTAGTGCAG”, which binding signal is on record?
A: 3540 fluorescence intensity (a.u.)

Q: Which binding signal does the source give for “AAATAACCGATACTAAAATCAATGGTTAAAATGAGTCAAACGGAGTCACCTAGTGCAG” here?
A: 15200 fluorescence intensity (a.u.)

Q: For “CGACAGCGGAACGTGAGCTCTGGGGCGACGACGGCGGCAACGGAGTCACCTAGTGCAG”, which binding signal is on record?
A: 46800 fluorescence intensity (a.u.)

Q: How did the binding signal turn out when “TACCTTACCTGTACGGCAGGCATGCATGTTACTCCAGTAGCGGAGTCACCTAGTGCAG” was run?
A: 39800 fluorescence intensity (a.u.)

Q: How did the binding signal turn out when “TTGCTTGGCTGAGACGCCGAGTCATATGTCAAGATAGTACCGGAGTCACCTAGTGCAG” was run?
A: 3370 fluorescence intensity (a.u.)

Q: “CCGACGTGGCTCGCCACGATGCCGGCAGCGTCGTCGCTGGCGGAGTCACCTAGTGCAG” was tested. Which binding signal did it give?
A: 34500 fluorescence intensity (a.u.)

Q: How did the binding signal turn out when “TTGGACGCATGCTAATATAATTACGTGGTACTTGATGTATCGGAGTCACCTAGTGCAG” was run?
A: 5440 fluorescence intensity (a.u.)

Q: For “CCATGTCGCCGCCGCCGACCACCCGGACGCCCTCCGCGCGCGGAGTCACCTAGTGCAG”, which binding signal is on record?
A: 3260 fluorescence intensity (a.u.)

Q: How did the binding signal turn out when “AGTGACTAACCAAACACTTGCTAACTGTGACACTATCCCCCGGAGTCACCTAGTGCAG” was run?
A: 5150 fluorescence intensity (a.u.)

Q: How did the binding signal turn out when “GAAAGAAAATACGTGCCAACGCATCTATAAATGGACAAGCCGGAGTCACCTAGTGCAG” was run?
A: 4950 fluorescence intensity (a.u.)

Q: Which binding signal does the source give for “ATAGACAGTTCAGGGTTAAAATATTTCGGTTTTGTGGTTTCGGAGTCACCTAGTGCAG” here?
A: 29600 fluorescence intensity (a.u.)

Q: How did the binding signal turn out when “TTTCAGCTTCCATCATCACCATCACTACTATTCACTACTTCGGAGTCACCTAGTGCAG” was run?
A: 3520 fluorescence intensity (a.u.)

Q: Which binding signal does the source give for “TAGTGTTGCTTGCAGTCTTGTTTTGTCATTCGTGCTAATCCGGAGTCACCTAGTGCAG” here?
A: 3570 fluorescence intensity (a.u.)

Q: With “GCACACCATCAACCCAGCCTCGTCACGGAGCCATCGACGACGGAGTCACCTAGTGCAG” as the sequence, how does the binding signal read?
A: 5080 fluorescence intensity (a.u.)

Q: “AACTGGTATAAAGCAAATAGGCAATGCTGTACTGTCATTTCGGAGTCACCTAGTGCAG” was tested. Which binding signal did it give?
A: 3860 fluorescence intensity (a.u.)

Q: For “TGTCAATTGCACACAGGGTTCATAGTCCCGAGCGGTATCTCGGAGTCACCTAGTGCAG”, which binding signal is on record?
A: 3430 fluorescence intensity (a.u.)

Q: With “ATGAAAATAGGGATTGCTCCTTTAGGTTCGGTTGGGCCTTCGGAGTCACCTAGTGCAG” as the sequence, how does the binding signal read?
A: 6340 fluorescence intensity (a.u.)

Q: With “CCGCCCAAGATTGCACTTGTCCACGCCGTGCATCGAGCCACGGAGTCACCTAGTGCAG” as the sequence, how does the binding signal read?
A: 4280 fluorescence intensity (a.u.)

Q: Which binding signal does the source give for “ACAGACTGACGACGTTTCATGACTGACTGTTTGACTTATCCGGAGTCACCTAGTGCAG” here?
A: 4390 fluorescence intensity (a.u.)
